# The other results are listed elsewhere or left out.
# B1: AntigenI/IIC123 (Streptococcus mutans), C9E3B4 (protein)
# chain: MASMTGGQQMGRIHFHYFKLAVQPQVNKEIRNNNDINIDRTLVAKQSVVKFQLKTADLPAGRDETTSFVLVDPLPSGYQFNPEATKAASPGFDVTYDNATNTVTFKATAATLATFNADLTKSVATIYPTVVGQVLNDGATYKNNFTLTVNDAYGIKSNVVRVTTPGKPNDPDNPNNNYIKPTKVNKNENGVVIDGKTVLAGSTNYYELTWDLDQYKNDRSSADTIQKGFYYVDDYPEEALELRQDLVKITDANGNEVTGVSVDNYTNLEAAPQEIRDVLSKAGIRPKGAFQIFRADNPREFYDTYVKTGIDLKIVSPMVVKKQMGQTGGSYENQAYQIDFGNGYASNIIINNVPKINPKKDVTLTLDPADTNNVDGQTIPLNTVFNYRLIGGIIPADHSEELFEYNFYDDYDQTGDHYTGQYKVFAKVDITFKDGSIIKSGAELTQYTTAEVDTAKGAITIKFKEAFLRSVSIDSAFQAESYIQMKRIAVGTFENTYINTVNGVTYSSLEHHHHHH
# What was measured:
# Test in all cases: glycan array binding signal (z-score within array); higher = stronger binding
# Conditions in all cases: glycan notation: IUPAC condensed, linker removed
# [1] = target: Man(a1-2)Man(a1-3)[Man(a1-2)Man(a1-6)]Man(a1-6)[Man(a1-2)Man(a1-2)Man(a1-3)]Man
# Method in brief: (§1)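 Columns mapping to the same glycan were averaged after glycan names were converted to IUPAC-condensed notation. The data come from 3228 arrays in the Consortium for Functional Glycomics database, limited to those with an available protein sequence. Binding is reported as a within-array Z-score averaged across arrays of one protein sequence and across linkers.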
# [2] = target: Man(a1-2)Man(a1-3)[Man(a1-2)Man(a1-6)]Man(a1-6)[Man(a1-2)Man(a1-2)Man(a1-3)]Man(b1-4)GlcNAc(b1-4)GlcNAc
# Method in brief: as §1
# [3] = target: Man(a1-2)Man(a1-3)[Man(a1-6)]Man(a1-6)[Man(a1-2)Man(a1-3)]Man(b1-4)GlcNAc(b1-4)GlcNAc
# Method in brief: as §1
# [4] = target: Man(a1-2)Man(a1-6)[Man(a1-3)]Man(a1-6)[Man(a1-2)Man(a1-2)Man(a1-3)]Man
# Method in brief: as §1
# [5] = target: Man(a1-2)Man(a1-6)[Man(a1-3)]Man(a1-6)[Man(a1-2)Man(a1-2)Man(a1-3)]Man(b1-4)GlcNAc(b1-4)GlcNAc
# Method in brief: as §1
# Man(a1-3)[Man(a1-6)]Man = target: Man(a1-3)[Man(a1-6)]Man
# Method in brief: as §1
# [6] = target: Man(a1-3)[Man(a1-6)]Man(a1-6)[Man(a1-2)Man(a1-3)]Man(b1-4)GlcNAc(b1-4)GlcNAc
# Method in brief: as §1
# [7] = target: Man(a1-3)[Man(a1-6)]Man(a1-6)[Man(a1-3)]Man
# Method in brief: as §1
# [8] = target: Man(a1-3)[Man(a1-6)]Man(a1-6)[Man(a1-3)]Man(b1-4)GlcNAc(b1-4)GlcNAc
# Method in brief: as §1
# [9] = target: Man(a1-3)[Man(a1-6)]Man(b1-4)GlcNAc(b1-4)GlcNAc
# Method in brief: as §1
# [10] = target: Man(a1-3)[Man(a1-6)]Man(b1-4)GlcNAc(b1-4)[Fuc(a1-6)]GlcNAc
# Method in brief: as §1
# Man(a1-6)Man = target: Man(a1-6)Man
# Method in brief: as §1
# Man(b1-4)GlcNAc = target: Man(b1-4)GlcNAc
# Method in brief: as §1
# MurNAc(b1-4)GlcNAc = target: MurNAc(b1-4)GlcNAc
# Method in brief: as §1
# Neu5Ac(a2-3)Gal = target: Neu5Ac(a2-3)Gal
# Method in brief: as §1
# [11] = target: Neu5Ac(a2-3)Gal(b1-3)GalNAc
# Method in brief: as §1
# [12] = target: Neu5Ac(a2-3)Gal(b1-3)GalNAc(b1-3)Gal(a1-4)Gal(b1-4)Glc
# Method in brief: as §1
# [13] = target: Neu5Ac(a2-3)Gal(b1-3)GalNAc(b1-4)[Neu5Ac(a2-3)]Gal(b1-4)Glc
# Method in brief: as §1
# [14] = target: Neu5Ac(a2-3)Gal(b1-3)GalNAc(b1-4)[Neu5Ac(a2-8)Neu5Ac(a2-3)]Gal(b1-4)Glc
# Method in brief: as §1
# [15] = target: Neu5Ac(a2-3)Gal(b1-3)GalNAc6S
# Method in brief: as §1
# [16] = target: Neu5Ac(a2-3)Gal(b1-3)GlcNAc
# Method in brief: as §1
# [17] = target: Neu5Ac(a2-3)Gal(b1-3)GlcNAc(b1-2)Man
# Method in brief: as §1
# [18] = target: Neu5Ac(a2-3)Gal(b1-3)GlcNAc(b1-2)Man(a1-3)[GlcNAc(b1-4)][Neu5Ac(a2-3)Gal(b1-3)GlcNAc(b1-2)Man(a1-6)]Man(b1-4)GlcNAc(b1-4)GlcNAc
# Method in brief: as §1
# [19] = target: Neu5Ac(a2-3)Gal(b1-3)GlcNAc(b1-2)Man(a1-3)[Neu5Ac(a2-3)Gal(b1-3)GlcNAc(b1-2)Man(a1-6)]Man(b1-4)GlcNAc(b1-4)GlcNAc
# Method in brief: as §1
# [20] = target: Neu5Ac(a2-3)Gal(b1-3)GlcNAc(b1-3)Gal(b1-3)GlcNAc
# Method in brief: as §1
# [21] = target: Neu5Ac(a2-3)Gal(b1-3)GlcNAc(b1-3)Gal(b1-4)GlcNAc
# Method in brief: as §1
# [22] = target: Neu5Ac(a2-3)Gal(b1-3)GlcNAc(b1-3)GalNAc
# Method in brief: as §1
# [23] = target: Neu5Ac(a2-3)Gal(b1-3)GlcNAc(b1-4)Gal(b1-4)Glc
# Method in brief: as §1
# [24] = target: Neu5Ac(a2-3)Gal(b1-3)GlcNAc(b1-6)GalNAc
# Method in brief: as §1
# [25] = target: Neu5Ac(a2-3)Gal(b1-3)GlcNAc6S
# Method in brief: as §1
# [26] = target: Neu5Ac(a2-3)Gal(b1-3)[Fuc(a1-4)]GlcNAc
# Method in brief: as §1
# [27] = target: Neu5Ac(a2-3)Gal(b1-3)[Fuc(a1-4)]GlcNAc(b1-3)Gal(b1-3)[Fuc(a1-4)]GlcNAc
# Method in brief: as §1
# [28] = target: Neu5Ac(a2-3)Gal(b1-3)[Fuc(a1-4)]GlcNAc(b1-3)Gal(b1-4)[Fuc(a1-3)]GlcNAc
# Method in brief: as §1
# [29] = target: Neu5Ac(a2-3)Gal(b1-3)[GlcNAc(b1-6)]GalNAc
# Method in brief: as §1
# [30] = target: Neu5Ac(a2-3)Gal(b1-3)[Neu5Ac(a2-6)]GalNAc
# Method in brief: as §1
# [31] = target: Neu5Ac(a2-3)Gal(b1-3)[Neu5Ac(a2-6)]GlcNAc(b1-3)[Fuc(a1-3)[Gal(b1-4)]GlcNAc(b1-6)]Gal(b1-4)Glc
# Method in brief: as §1
# [32] = target: Neu5Ac(a2-3)Gal(b1-3)]Neu5Ac(a2-3)Gal(b1-4)]GlcNAc
# Method in brief: as §1
# Neu5Ac(a2-3)Gal(b1-4)Glc = target: Neu5Ac(a2-3)Gal(b1-4)Glc
# Method in brief: as §1
# [33] = target: Neu5Ac(a2-3)Gal(b1-4)GlcNAc
# Method in brief: as §1
# [34] = target: Neu5Ac(a2-3)Gal(b1-4)GlcNAc(b1-2)Man
# Method in brief: as §1
# [35] = target: Neu5Ac(a2-3)Gal(b1-4)GlcNAc(b1-2)Man(a1-3)[GlcNAc(b1-4)][Neu5Ac(a2-3)Gal(b1-4)GlcNAc(b1-2)Man(a1-6)]Man(b1-4)GlcNAc(b1-4)GlcNAc
# Method in brief: as §1
# [36] = target: Neu5Ac(a2-3)Gal(b1-4)GlcNAc(b1-2)Man(a1-3)[Neu5Ac(a2-3)Gal(b1-4)GlcNAc(b1-2)Man(a1-6)]Man(b1-4)GlcNAc(b1-4)GlcNAc
# Method in brief: as §1
# [37] = target: Neu5Ac(a2-3)Gal(b1-4)GlcNAc(b1-2)Man(a1-3)[Neu5Ac(a2-3)Gal(b1-4)GlcNAc(b1-2)Man(a1-6)]Man(b1-4)GlcNAc(b1-4)[Fuc(a1-6)]GlcNAc
# Method in brief: as §1
# [38] = target: Neu5Ac(a2-3)Gal(b1-4)GlcNAc(b1-2)Man(a1-3)[Neu5Ac(a2-6)Gal(b1-4)GlcNAc(b1-2)Man(a1-6)]Man(b1-4)GlcNAc(b1-4)GlcNAc
# Method in brief: as §1
# [39] = target: Neu5Ac(a2-3)Gal(b1-4)GlcNAc(b1-2)[Neu5Ac(a2-3)Gal(b1-4)GlcNAc(b1-4)]Man(a1-3)[GlcNAc(b1-4)][Neu5Ac(a2-3)Gal(b1-4)GlcNAc(b1-2)[Neu5Ac(a2-3)Gal(b1-4)GlcNAc(b1-6)]Man(a1-6)]Man(b1-4)GlcNAc(b1-4)GlcNAc
# Method in brief: as §1
binder,measurement,setting,value
B1,glycan array binding signal (z-score),[1],-0.734
same,glycan array binding signal (z-score),[2],0.792
same,glycan array binding signal (z-score),[3],-0.274
same,glycan array binding signal (z-score),[4],-0.547
same,glycan array binding signal (z-score),[5],-0.882
same,glycan array binding signal (z-score),Man(a1-3)[Man(a1-6)]Man,-0.563
same,glycan array binding signal (z-score),[6],1.1
same,glycan array binding signal (z-score),[7],-0.54
same,glycan array binding signal (z-score),[8],0.117
same,glycan array binding signal (z-score),[9],0.013
same,glycan array binding signal (z-score),[10],-0.768
same,glycan array binding signal (z-score),Man(a1-6)Man,0.346
same,glycan array binding signal (z-score),Man(b1-4)GlcNAc,-0.494
same,glycan array binding signal (z-score),MurNAc(b1-4)GlcNAc,0.064
same,glycan array binding signal (z-score),Neu5Ac(a2-3)Gal,-0.677
same,glycan array binding signal (z-score),[11],-0.563
same,glycan array binding signal (z-score),[12],0.243
same,glycan array binding signal (z-score),[13],-0.634
same,glycan array binding signal (z-score),[14],-0.246
same,glycan array binding signal (z-score),[15],-1.07
same,glycan array binding signal (z-score),[16],-0.489
same,glycan array binding signal (z-score),[17],1
same,glycan array binding signal (z-score),[18],0.141
same,glycan array binding signal (z-score),[19],0.211
same,glycan array binding signal (z-score),[20],-1.17
same,glycan array binding signal (z-score),[21],-0.275
same,glycan array binding signal (z-score),[22],0.196
same,glycan array binding signal (z-score),[23],-0.775
same,glycan array binding signal (z-score),[24],0.391
same,glycan array binding signal (z-score),[25],-0.509
same,glycan array binding signal (z-score),[26],0.144
same,glycan array binding signal (z-score),[27],1.19
same,glycan array binding signal (z-score),[28],0.615
same,glycan array binding signal (z-score),[29],-0.693
same,glycan array binding signal (z-score),[30],0.477
same,glycan array binding signal (z-score),[31],-1.02
same,glycan array binding signal (z-score),[32],-0.663
same,glycan array binding signal (z-score),Neu5Ac(a2-3)Gal(b1-4)Glc,-0.698
same,glycan array binding signal (z-score),[33],-0.319
same,glycan array binding signal (z-score),[34],0.297
same,glycan array binding signal (z-score),[35],0.168
same,glycan array binding signal (z-score),[36],-1.13
same,glycan array binding signal (z-score),[37],1.92
same,glycan array binding signal (z-score),[38],-0.814
same,glycan array binding signal (z-score),[39],-0.712

# 4 records picked at random from those above:
binder,measurement,setting,value
B1,glycan array binding signal (z-score),[11],-0.563
same,glycan array binding signal (z-score),[4],-0.547
same,glycan array binding signal (z-score),[16],-0.489
same,glycan array binding signal (z-score),[24],0.391

# — the supplement of paper PMC8728848
